In the supplement of paper PMC8426693:
The list shows a part of the results.

How the values were obtained:
Assay in all cases: NMR binding call after quantification (hit when 2 of 3 NMR criteria are met) (binary (1 = binding, 0 = not binding)); higher = binding
Conditions in all cases: RNA concentration 10 µM; fragment concentration 200 µM; 293 K
[1] = test system: SARS-CoV-2 3'-UTR RNA
[2] = test system: SARS-CoV-2 3_SL1 RNA
[3] = test system: SARS-CoV-2 3_SL1+2 RNA
[4] = test system: SARS-CoV-2 3_SL2 RNA
[5] = test system: SARS-CoV-2 3_SL3base RNA
[6] = test system: SARS-CoV-2 3_s2m RNA
[7] = test system: SARS-CoV-2 5'-UTR RNA
[8] = test system: SARS-CoV-2 5_SL1 RNA
[9] = test system: SARS-CoV-2 5_SL1234 RNA
[10] = test system: SARS-CoV-2 5_SL2+3 RNA
[11] = test system: SARS-CoV-2 5_SL4 RNA
[12] = test system: SARS-CoV-2 5_SL5 RNA
[13] = test system: SARS-CoV-2 5_SL5a RNA
[14] = test system: SARS-CoV-2 5_SL5b+c RNA
[15] = test system: SARS-CoV-2 5_SL5stem RNA
[16] = test system: SARS-CoV-2 5_SL6 RNA

Measured: NMR binding call

Clc1cccc(CN2CCOCC2)c1
0: all assays above

O=C(CCc1ccccc1)Nc1ccc(O)cc1
0: all assays above

CCOC(=O)CN1CCS(=O)(=O)CC1
0: all assays above

Cc1ncsc1C(=O)N1CCNC(=O)C1
0: all assays above

CCc1cc(=O)n2nc(NC)sc2n1
0: all assays above

CC1CN(S(C)(=O)=O)CCC1N (centres undefined)
0: all assays above

CNC1CCCCC1S(C)(=O)=O (centres undefined)
0: all assays above

CCc1ncc(CNC)s1
0: all assays above

Cc1csc(NCC2CCCO2)n1 (centres undefined)
0: all assays above

Cc1cc(C(=O)NCC2CCCO2)ns1 (centres undefined)
0: all assays above

Cl.NC(=O)c1ccc2c(c1)CCN2
0: all assays above

CC(O)CNC1CCCCC1 (centres undefined)
0: all assays above

CN(C)C(=O)N1CCN(C(=O)N(C)C)CC1
0: all assays above

Cc1cccc(C(=O)NCC(=O)O)c1
0: all assays above

Fc1ccc(NC2CCOCC2)nc1
0: all assays above

Cc1ccc(NC(=O)c2ccccc2C)c(O)c1
0: all assays above

CC(C)(CO)NC(=O)Nc1ccc(Cl)cc1
0: all assays above

CCOC(=O)c1cc(-c2ccc(F)cc2)no1
0: all assays above

COCC(=O)Nc1nnc(C)s1
0: all assays above

Cc1cnc(NC(=O)CCC2CCCC2)s1
0: all assays above

Cc1cc(C(=O)NCC2CCOC2)on1 (centres undefined)
0: all assays above

Two successive entries from above, quoted:
CC1CN(S(C)(=O)=O)CCC1N (centres undefined)
0: all assays above

CNC1CCCCC1S(C)(=O)=O (centres undefined)
0: all assays above

The results go on.

COc1ccc(CCC2(C)NC(=O)NC2=O)cc1 (centres undefined)
0: all assays above

CN1CCN(CCN)CC1(C)C
0: all assays above

Nc1ccccc1N1CCOCC1
0: all assays above
